Article PMC6639074
No constants are given. Whether binding was seen depends on the method and setting. In cells and extracts the contact can be indirect. A yes stands for co-enrichment or nearness to the bait. Other partners may have been found. For some of these results: Sequences can lack the tags named with a protein.

The chains behind the UniProt entries cited, without tags or fusion partners. Where a name states a change or a piece, a line headed by the entry shows the natural chain unless it says otherwise. A line that says so, or that is headed by a name, gives the form on record, which may keep a tag or linker.
UniProt P61026: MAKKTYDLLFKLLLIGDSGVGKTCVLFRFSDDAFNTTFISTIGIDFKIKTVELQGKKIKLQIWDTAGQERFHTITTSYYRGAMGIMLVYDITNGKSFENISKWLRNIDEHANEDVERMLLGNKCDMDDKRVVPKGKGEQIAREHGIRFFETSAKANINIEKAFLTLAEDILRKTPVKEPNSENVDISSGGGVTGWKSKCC
UniProt Q9NP72: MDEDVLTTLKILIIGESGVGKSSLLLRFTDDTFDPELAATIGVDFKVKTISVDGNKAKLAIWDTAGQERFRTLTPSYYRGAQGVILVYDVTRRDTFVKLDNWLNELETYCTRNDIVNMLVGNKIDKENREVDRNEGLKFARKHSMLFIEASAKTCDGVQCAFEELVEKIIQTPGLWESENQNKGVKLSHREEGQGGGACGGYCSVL
Rab5A(Q79L)-BirA*-HA-MAO (P20339, form named): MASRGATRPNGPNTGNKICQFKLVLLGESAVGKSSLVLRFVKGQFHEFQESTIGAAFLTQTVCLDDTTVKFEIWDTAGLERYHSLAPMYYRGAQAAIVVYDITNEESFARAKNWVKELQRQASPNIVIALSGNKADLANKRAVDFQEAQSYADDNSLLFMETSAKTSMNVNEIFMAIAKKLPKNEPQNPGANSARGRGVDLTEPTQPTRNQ
Rab5A(S34N)-BirA*-HA-MAO (P20339, form named): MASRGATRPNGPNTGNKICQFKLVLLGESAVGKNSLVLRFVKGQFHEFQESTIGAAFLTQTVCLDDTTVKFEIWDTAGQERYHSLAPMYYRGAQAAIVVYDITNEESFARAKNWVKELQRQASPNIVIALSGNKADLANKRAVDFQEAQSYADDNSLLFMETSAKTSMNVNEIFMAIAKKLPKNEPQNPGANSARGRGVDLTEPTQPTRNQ

Assays:
Assay in all cases: proximity labelling; MitoID: GTPase-BirA*-HA-MAO chimera on mitochondria of transiently transfected HEK293T cells, 50 uM biotin 18 h, streptavidin beads, mass spectrometry, biological triplicates; hits by WD scores and volcano plots against the GDP-locked forms
[1] = biological target: Rab10(Q68L)-BirA*-HA-MAO (human) (UniProt P61026)
[2] = biological target: Rab18(Q67L)-BirA*-HA-MAO (human) (UniProt Q9NP72)
[3] = biological target: Rab5A(Q79L)-BirA*-HA-MAO (human) (UniProt P20339)
[4] = biological target: Rab5A(S34N)-BirA*-HA-MAO (human) (UniProt P20339)
[5] = biological target: T1, Rab9A(Q66L)-BirA*-HA-MAO (human) (UniProt P51151)
T1 sequence: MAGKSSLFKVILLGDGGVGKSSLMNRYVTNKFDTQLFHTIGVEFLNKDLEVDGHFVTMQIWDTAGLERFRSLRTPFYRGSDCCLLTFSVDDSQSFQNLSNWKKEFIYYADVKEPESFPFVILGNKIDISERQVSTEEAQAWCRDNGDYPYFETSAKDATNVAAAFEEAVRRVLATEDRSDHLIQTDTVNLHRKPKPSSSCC

B1: KIF3B (protein, UniProt O15066 1-747)
chain: MSKLKSSESVRVVVRCRPMNGKEKAASYDKVVDVDVKLGQVSVKNPKGTAHEMPKTFTFDAVYDWNAKQFELYDETFRPLVDSVLQGFNGTIFAYGQTGTGKTYTMEGIRGDPEKRGVIPNSFDHIFTHISRSQNQQYLVRASYLEIYQEEIRDLLSKDQTKRLELKERPDTGVYVKDLSSFVTKSVKEIEHVMNVGNQNRSVGATNMNEHSSRSHAIFVITIECSEVGLDGENHIRVGKLNLVDLAGSERQAKTGAQGERLKEATKINLSLSALGNVISALVDGKSTHIPYRDSKLTRLLQDSLGGNAKTVMVANVGPASYNVEETLTTLRYANRAKNIKNKPRVNEDPKDALLREFQEEIARLKAQLEKRSIGRRKRREKRREGGGSGGGGEEEEEEGEEGEEEGDDKDDYWREQQEKLEIEKRAIVEDHSLVAEEKMRLLKEKEKKMEDLRREKDAAEMLGAKIKAMESKLLVGGKNIVDHTNEQQKILEQKRQEIAEQKRREREIQQQMESRDEETLELKETYSSLQQEVDIKTKKLKKLFSKLQAVKAEIHDLQEEHIKERQELEQTQNELTRELKLKHLIIENFIPLEEKSKIMNRAFFDEEEDHWKLHPITRLENQQMMKRPVSAVGYKRPLSQHARMSMMIRPEARYRAENIVLLELDMPSRTTRDYEGPAIAPKVQAALDAALQDEDEIQVDASSFESTANKKSKARPKSGRKSGSSSSSSGTPASQLYPQSRGLVPK
- binding [1]: binds

B2: ZW10 (protein, UniProt O43264 1-779)
chain: MASFVTEVLAHSGRLEKEDLGTRISRLTRRVEEIKGEVCNMISKKYSEFLPSMQSAQGLITQVDKLSEDIDLLKSRIESEVRRDLHVSTGEFTDLKQQLERDSVVLSLLKQLQEFSTAIEEYNCALTEKKYVTGAQRLEEAQKCLKLLKSRKCFDLKILKSLSMELTIQKQNILYHLGEEWQKLIVWKFPPSKDTSSLESYLQTELHLYTEQSHKEEKTPMPPISSVLLAFSVLGELHSKLKSFGQMLLKYILRPLASCPSLHAVIESQPNIVIIRFESIMTNLEYPSPSEVFTKIRLVLEVLQKQLLDLPLDTDLENEKTSTVPLAEMLGDMIWEDLSECLIKNCLVYSIPTNSSKLQQYEEIIQSTEEFENALKEMRFLKGDTTDLLKYARNINSHFANKKCQDVIVAARNLMTSEIHNTVKIIPDSKINVPELPTPDEDNKLEVQKVSNTQYHEVMNLEPENTLDQHSFSLPTCRISESVKKLMELAYQTLLEATTSSDQCAVQLFYSVRNIFHLFHDVVPTYHKENLQKLPQLAAIHHNNCMYIAHHLLTLGHQFRLRLAPILCDGTATFVDLVPGFRRLGTECFLAQMRAQKGELLERLSSARNFSNMDDEENYSAASKAVRQVLHQLKRLGIVWQDVLPVNIYCKAMGTLLNTAISEVIGKITALEDISTEDGDRLYSLCKTVMDEGPQVFAPLSEESKNKKYQEEVPVYVPKWMPFKELMMMLQASLQEIGDRWADGKGPLAAAFSSSEVKALIRALFQNTERRAAALAKIK
- binding [2]: binds

B3: SPAG9 (protein, UniProt O60271 1-1321)
chain: MELEDGVVYQEEPGGSGAVMSERVSGLAGSIYREFERLIGRYDEEVVKELMPLVVAVLENLDSVFAQDQEHQVELELLRDDNEQLITQYEREKALRKHAEEKFIEFEDSQEQEKKDLQTRVESLESQTRQLELKAKNYADQISRLEEREAELKKEYNALHQRHTEMIHNYMEHLERTKLHQLSGSDQLESTAHSRIRKERPISLGIFPLPAGDGLLTPDAQKGGETPGSEQWKFQELSQPRSHTSLKVSNSPEPQKAVEQEDELSDVSQGGSKATTPASTANSDVATIPTDTPLKEENEGFVKVTDAPNKSEISKHIEVQVAQETRNVSTGSAENEEKSEVQAIIESTPELDMDKDLSGYKGSSTPTKGIENKAFDRNTESLFEELSSAGSGLIGDVDEGADLLGMGREVENLILENTQLLETKNALNIVKNDLIAKVDELTCEKDVLQGELEAVKQAKLKLEEKNRELEEELRKARAEAEDARQKAKDDDDSDIPTAQRKRFTRVEMARVLMERNQYKERLMELQEAVRWTEMIRASRENPAMQEKKRSSIWQFFSRLFSSSSNTTKKPEPPVNLKYNAPTSHVTPSVKKRSSTLSQLPGDKSKAFDFLSEETEASLASRREQKREQYRQVKAHVQKEDGRVQAFGWSLPQKYKQVTNGQGENKMKNLPVPVYLRPLDEKDTSMKLWCAVGVNLSGGKTRDGGSVVGASVFYKDVAGLDTEGSKQRSASQSSLDKLDQELKEQQKELKNQEELSSLVWICTSTHSATKVLIIDAVQPGNILDSFTVCNSHVLCIASVPGARETDYPAGEDLSESGQVDKASLCGSMTSNSSAETDSLLGGITVVGCSAEGVTGAATSPSTNGASPVMDKPPEMEAENSEVDENVPTAEEATEATEGNAGSAEDTVDISQTGVYTEHVFTDPLGVQIPEDLSPVYQSSNDSDAYKDQISVLPNEQDLVREEAQKMSSLLPTMWLGAQNGCLYVHSSVAQWRKCLHSIKLKDSILSIVHVKGIVLVALADGTLAIFHRGVDGQWDLSNYHLLDLGRPHHSIRCMTVVHDKVWCGYRNKIYVVQPKAMKIEKSFDAHPRKESQVRQLAWVGDGVWVSIRLDSTLRLYHAHTYQHLQDVDIEPYVSKMLGTGKLGFSFVRITALMVSCNRLWVGTGNGVIISIPLTETNKTSGVPGNRPGSVIRVYGDENSDKVTPGTFIPYCSMAHAQLCFHGHRDAVKFFVAVPGQVISPQSSSSGTDLTGDKAGPSAQEPGSQTPLKSMLVISGGEGYIDFRMGDEGGESELLGEDLPLEPSVTKAERSHLIVWQVMYGNE
- binding [3]: binds
- binding [4]: binds

B4: GRIPAP1/GRASP-1 (protein, UniProt Q4V328 1-841)
chain: MAQALSEEEFQRMQAQLLELRTNNYQLSDELRKNGVELTSLRQKVAYLDKEFSKAQKALSKSKKAQEVEVLLSENEMLQAKLHSQEEDFRLQNSTLMAEFSKLCSQMEQLEQENQQLKEGAAGAGVAQAGPLVDGELLRLQAENTALQKNVAALQERYGKEAGKFSAVSEGQGDPPGGLAPTVLAPMPLAEVELKWEMEKEEKRLLWEQLQGLESSKQAETSRLQEELAKLSEKLKKKQESFCRLQTEKETLFNDSRNKIEELQQRKEADHKAQLARTQKLQQELEAANQSLAELRDQRQGERLEHAAALRALQDQVSIQSADAQEQVEGLLAENNALRTSLAALEQIQTAKTQELNMLREQTTGLAAELQQQQAEYEDLMGQKDDLNSQLQESLRANSRLLEQLQEIGQEKEQLTQELQEARKSAEKRKAMLDELAMETLQEKSQHKEELGAVRLRHEKEVLGVRARYERELRELHEDKKRQEEELRGQIREEKARTRELETLQQTVEELQAQVHSMDGAKGWFERRLKEAEESLQQQQQEQEEALKQCREQHAAELKGKEEELQDVRDQLEQAQEERDCHLKTISSLKQEVKDTVDGQRILEKKGSAALKDLKRQLHLERKRADKLQERLQDILTNSKSRSGLEELVLSEMNSPSRTQTGDSSSISSFSYREILREKESSAVPARSLSSSPQAQPPRPAELSDEEVAELFQRLAETQQEKWMLEEKVKHLEVSSASMAEDLCRKSAIIETYVMDSRIDVSVAAGHTDRSGLGSVLRDLVKPGDENLREMNKKLQNMLEEQLTKNMHLHKDMEVLSQEIVRLSKECVGPPDPDLEPGETS
- binding [5]: binds

B5: HPS3 (protein, UniProt Q969F9 1-1004)
chain: MVQLYNLHPFGSQQVVPCKLEPDRFCGGGRDALFVAAGCKVEAFAVAGQELCQPRCAFSTLGRVLRLAYSEAGDYLVAIEEKNKATFLRAYVNWRNKRTENSRVCIRMIGHNVEGPFSKAFRDQMYIIEMPLSEAPLCISCCPVKGDLLVGCTNKLVLFSLKYQIINEEFSLLDFERSLIIHIDNITPVEVSFCVGYVAVMSDLEVLIVKLESGPKNGERVHHHPHKTNNRIRRTEEGISNEISQLESDDFVICQKPLELLGEKSEQSGLSVTLESTGLADEKRKYSHFQHLLYRRFAPDISSYVLSDDIKLHSLQLLPIYQTGSLTSDGKNLSQEKELLSLFCFFSLPHVGYLYMVVKSVELMSVYQYPEKSQQAVLTPQFLHVITSNNLQCFTVRCSAAAAREEDPYMDTTLKACPPVSMDVCALRIQLFIGLKAICHFKNHIILLTKAEPEAIPERRQSPKRLLSRKDTSVKIKIPPVAEAGWNLYIVNTISPVQLYKEMVDYSNTYKTVKTQSCIHLLSEAHLLVRAALMDASQLEPGEKAELLEAFKESCGHLGDCYSRLDSQHSHLTLPYYKMSGLSMAEVLARTDWTVEDGLQKYERGLIFYINHSLYENLDEELNEELAAKVVQMFYVAEPKQVPHILCSPSMKNINPLTAMSYLRKLDTSGFSSILVTLTKAAVALKMGDLDMHRNEMKSHSEMKLVCGFILEPRLLIQQRKGQIVPTELALHLKETQPGLLVASVLGLQKNNKIGIEEADSFFKVLCAKDEDTIPQLLVDFWEAQLVACLPDVVLQELFFKLTSQYIWRLSKRQPPDTTPLRTSEDLINACSHYGLIYPWVHVVISSDSLADKNYTEDLSKLQSLICGPSFDIASIIPFLEPLSEDTIAGLSVHVLCRTRLKEYEQCIDILLERCPEAVIPYANHELKEENRTLWWKKLLPELCQRIKCGGEKYQLYLSSLKETLSIVAVELELKDFMNVLPEDGTATFFLPYLLYCSRKKPLT
- binding [5]: binds

B6: NDE1/NudE (protein, UniProt Q9NXR1 1-335)
chain: MEDSGKTFSSEEEEANYWKDLAMTYKQRAENTQEELREFQEGSREYEAELETQLQQIETRNRDLLSENNRLRMELETIKEKFEVQHSEGYRQISALEDDLAQTKAIKDQLQKYIRELEQANDDLERAKRATIMSLEDFEQRLNQAIERNAFLESELDEKENLLESVQRLKDEARDLRQELAVQQKQEKPRTPMPSSVEAERTDTAVQATGSVPSTPIAHRGPSSSLNTPGSFRRGLDDSTGGTPLTPAARISALNIVGDLLRKVGALESKLASCRNLVYDQSPNRTGGPASGRSSKNRDGGERRPSSTSVPLGDKGLDTSCRWLSKSTTRSSSSC
- binding [5]: binds
